No constants are given. Whether binding was seen depends on the method and setting. In cells and extracts the contact can be indirect. Here binding means that the protein was enriched with, or labelled near, the bait; the list need not be complete. Where a sequence is shown, tags or fusion partners need not be part of it.
T1: 3×FLAG–galectin-8 (stably expressed in RAW 264.7 cells) (mouse) (UniProt Q9JL15)
T1 sequence: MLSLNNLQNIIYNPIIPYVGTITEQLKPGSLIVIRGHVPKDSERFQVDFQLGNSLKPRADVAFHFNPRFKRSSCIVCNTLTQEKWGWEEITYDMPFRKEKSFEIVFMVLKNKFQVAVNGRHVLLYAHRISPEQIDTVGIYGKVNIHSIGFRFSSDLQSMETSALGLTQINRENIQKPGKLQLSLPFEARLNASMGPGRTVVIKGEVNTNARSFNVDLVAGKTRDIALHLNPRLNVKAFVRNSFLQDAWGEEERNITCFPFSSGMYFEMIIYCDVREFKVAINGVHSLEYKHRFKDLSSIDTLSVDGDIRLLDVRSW

The chains behind the UniProt entries cited, without tags or fusion partners. Residues count along the entry.
UniProt P62259: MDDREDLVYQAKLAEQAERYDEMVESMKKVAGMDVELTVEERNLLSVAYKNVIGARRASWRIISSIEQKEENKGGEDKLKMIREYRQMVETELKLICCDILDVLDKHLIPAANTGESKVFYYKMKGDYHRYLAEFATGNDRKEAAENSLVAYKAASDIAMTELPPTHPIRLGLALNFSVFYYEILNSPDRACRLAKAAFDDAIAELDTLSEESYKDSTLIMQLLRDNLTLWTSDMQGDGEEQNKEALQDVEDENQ
UniProt P07356: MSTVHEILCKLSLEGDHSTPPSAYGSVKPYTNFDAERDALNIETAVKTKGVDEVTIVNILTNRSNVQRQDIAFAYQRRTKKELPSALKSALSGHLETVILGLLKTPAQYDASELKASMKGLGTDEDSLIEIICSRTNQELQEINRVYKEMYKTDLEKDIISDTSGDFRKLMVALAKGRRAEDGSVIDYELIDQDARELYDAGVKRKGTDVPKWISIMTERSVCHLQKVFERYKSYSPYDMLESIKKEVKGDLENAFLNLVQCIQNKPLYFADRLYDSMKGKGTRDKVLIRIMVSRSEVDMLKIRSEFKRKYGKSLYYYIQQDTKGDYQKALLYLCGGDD
UniProt P48036: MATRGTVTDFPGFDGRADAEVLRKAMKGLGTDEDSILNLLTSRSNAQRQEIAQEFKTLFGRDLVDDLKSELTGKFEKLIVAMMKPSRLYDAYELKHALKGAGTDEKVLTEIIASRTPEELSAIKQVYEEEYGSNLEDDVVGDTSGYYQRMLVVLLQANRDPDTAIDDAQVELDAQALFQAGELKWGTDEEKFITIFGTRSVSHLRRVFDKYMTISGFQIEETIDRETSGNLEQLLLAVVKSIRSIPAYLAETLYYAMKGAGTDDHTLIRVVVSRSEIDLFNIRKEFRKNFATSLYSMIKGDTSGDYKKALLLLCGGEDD
UniProt P63158: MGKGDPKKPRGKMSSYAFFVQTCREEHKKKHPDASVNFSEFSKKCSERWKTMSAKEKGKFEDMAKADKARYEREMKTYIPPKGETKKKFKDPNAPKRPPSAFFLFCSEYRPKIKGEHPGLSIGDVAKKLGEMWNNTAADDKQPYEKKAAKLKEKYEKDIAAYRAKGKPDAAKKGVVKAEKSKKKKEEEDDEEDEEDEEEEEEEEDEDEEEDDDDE
UniProt P08113, residues 22-802: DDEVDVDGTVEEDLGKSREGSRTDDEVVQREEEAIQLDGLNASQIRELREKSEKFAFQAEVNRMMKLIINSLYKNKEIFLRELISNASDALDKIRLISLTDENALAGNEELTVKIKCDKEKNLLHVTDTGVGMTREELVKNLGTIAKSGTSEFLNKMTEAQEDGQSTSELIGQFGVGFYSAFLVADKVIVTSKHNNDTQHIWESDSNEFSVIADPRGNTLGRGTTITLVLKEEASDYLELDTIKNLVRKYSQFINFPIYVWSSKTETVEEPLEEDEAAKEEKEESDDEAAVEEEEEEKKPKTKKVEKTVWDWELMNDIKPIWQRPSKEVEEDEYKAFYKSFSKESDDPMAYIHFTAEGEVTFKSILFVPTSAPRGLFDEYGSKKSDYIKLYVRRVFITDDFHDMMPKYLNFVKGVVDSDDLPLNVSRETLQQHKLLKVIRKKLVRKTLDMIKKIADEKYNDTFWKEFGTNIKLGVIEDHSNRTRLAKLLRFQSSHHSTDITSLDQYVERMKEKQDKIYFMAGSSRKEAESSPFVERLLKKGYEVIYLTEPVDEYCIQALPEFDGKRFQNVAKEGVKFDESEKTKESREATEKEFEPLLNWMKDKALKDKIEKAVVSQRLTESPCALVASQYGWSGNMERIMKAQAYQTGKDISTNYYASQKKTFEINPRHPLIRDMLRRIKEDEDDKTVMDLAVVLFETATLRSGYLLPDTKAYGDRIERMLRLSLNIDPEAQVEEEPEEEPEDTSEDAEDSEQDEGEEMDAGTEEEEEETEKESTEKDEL
UniProt P09103, residues 20-509: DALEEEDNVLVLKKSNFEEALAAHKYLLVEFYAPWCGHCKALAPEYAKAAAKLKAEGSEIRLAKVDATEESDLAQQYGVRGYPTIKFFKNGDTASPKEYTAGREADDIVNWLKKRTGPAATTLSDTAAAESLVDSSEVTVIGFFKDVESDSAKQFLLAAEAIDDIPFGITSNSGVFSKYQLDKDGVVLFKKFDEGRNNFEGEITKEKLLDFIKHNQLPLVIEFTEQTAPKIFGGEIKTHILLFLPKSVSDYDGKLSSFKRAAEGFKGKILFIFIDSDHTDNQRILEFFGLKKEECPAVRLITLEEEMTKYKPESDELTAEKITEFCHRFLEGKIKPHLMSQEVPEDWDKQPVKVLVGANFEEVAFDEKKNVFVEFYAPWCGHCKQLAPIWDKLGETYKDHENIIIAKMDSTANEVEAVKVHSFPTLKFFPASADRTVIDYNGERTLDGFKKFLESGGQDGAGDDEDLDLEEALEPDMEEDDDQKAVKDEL
UniProt P08003, residues 21-638: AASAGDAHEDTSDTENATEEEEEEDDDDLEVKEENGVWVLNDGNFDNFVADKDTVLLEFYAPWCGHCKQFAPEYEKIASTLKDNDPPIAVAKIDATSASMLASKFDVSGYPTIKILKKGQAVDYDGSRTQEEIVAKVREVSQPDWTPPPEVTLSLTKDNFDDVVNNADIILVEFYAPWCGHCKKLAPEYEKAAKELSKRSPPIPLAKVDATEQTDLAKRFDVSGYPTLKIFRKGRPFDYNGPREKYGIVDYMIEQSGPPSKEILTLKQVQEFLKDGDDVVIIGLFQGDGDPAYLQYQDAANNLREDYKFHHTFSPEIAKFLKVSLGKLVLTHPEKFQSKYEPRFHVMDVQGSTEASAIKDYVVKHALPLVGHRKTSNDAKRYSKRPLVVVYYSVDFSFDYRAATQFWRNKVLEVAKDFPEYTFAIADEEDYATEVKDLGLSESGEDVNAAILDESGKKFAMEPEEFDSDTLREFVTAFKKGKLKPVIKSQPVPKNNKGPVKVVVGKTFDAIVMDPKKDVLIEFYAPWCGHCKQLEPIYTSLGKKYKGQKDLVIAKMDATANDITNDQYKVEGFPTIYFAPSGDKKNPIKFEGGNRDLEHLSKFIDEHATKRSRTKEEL
UniProt Q62159: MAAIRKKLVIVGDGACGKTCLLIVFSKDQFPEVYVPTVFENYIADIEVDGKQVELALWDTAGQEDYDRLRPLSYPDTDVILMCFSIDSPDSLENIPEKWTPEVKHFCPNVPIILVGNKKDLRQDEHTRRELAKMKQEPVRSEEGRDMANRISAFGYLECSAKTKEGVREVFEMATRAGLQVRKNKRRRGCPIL
UniProt Q9WUU7, residues 64-306: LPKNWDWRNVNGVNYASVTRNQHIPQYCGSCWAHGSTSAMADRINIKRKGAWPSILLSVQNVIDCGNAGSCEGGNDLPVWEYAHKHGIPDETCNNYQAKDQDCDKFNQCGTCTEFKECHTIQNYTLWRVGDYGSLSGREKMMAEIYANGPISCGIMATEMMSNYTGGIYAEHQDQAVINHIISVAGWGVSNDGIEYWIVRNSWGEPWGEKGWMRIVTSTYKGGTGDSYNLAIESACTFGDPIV
UniProt P31996, residues 21-326: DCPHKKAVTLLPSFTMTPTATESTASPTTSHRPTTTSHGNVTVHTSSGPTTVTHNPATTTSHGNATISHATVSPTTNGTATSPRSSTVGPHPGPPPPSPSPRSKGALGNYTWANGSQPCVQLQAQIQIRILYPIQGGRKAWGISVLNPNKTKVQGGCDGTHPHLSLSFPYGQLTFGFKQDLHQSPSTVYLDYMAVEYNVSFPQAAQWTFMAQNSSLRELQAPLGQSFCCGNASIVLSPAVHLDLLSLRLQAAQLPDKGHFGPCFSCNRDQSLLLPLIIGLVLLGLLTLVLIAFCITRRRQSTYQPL
UniProt O08992: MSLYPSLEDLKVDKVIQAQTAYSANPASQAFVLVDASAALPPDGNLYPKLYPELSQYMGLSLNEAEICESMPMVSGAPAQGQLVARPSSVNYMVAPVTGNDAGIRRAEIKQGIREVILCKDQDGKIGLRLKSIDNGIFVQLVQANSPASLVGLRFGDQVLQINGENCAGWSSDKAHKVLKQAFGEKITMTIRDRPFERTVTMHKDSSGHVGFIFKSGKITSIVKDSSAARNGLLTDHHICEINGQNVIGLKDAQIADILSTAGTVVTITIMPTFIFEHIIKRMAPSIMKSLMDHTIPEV
UniProt P26039: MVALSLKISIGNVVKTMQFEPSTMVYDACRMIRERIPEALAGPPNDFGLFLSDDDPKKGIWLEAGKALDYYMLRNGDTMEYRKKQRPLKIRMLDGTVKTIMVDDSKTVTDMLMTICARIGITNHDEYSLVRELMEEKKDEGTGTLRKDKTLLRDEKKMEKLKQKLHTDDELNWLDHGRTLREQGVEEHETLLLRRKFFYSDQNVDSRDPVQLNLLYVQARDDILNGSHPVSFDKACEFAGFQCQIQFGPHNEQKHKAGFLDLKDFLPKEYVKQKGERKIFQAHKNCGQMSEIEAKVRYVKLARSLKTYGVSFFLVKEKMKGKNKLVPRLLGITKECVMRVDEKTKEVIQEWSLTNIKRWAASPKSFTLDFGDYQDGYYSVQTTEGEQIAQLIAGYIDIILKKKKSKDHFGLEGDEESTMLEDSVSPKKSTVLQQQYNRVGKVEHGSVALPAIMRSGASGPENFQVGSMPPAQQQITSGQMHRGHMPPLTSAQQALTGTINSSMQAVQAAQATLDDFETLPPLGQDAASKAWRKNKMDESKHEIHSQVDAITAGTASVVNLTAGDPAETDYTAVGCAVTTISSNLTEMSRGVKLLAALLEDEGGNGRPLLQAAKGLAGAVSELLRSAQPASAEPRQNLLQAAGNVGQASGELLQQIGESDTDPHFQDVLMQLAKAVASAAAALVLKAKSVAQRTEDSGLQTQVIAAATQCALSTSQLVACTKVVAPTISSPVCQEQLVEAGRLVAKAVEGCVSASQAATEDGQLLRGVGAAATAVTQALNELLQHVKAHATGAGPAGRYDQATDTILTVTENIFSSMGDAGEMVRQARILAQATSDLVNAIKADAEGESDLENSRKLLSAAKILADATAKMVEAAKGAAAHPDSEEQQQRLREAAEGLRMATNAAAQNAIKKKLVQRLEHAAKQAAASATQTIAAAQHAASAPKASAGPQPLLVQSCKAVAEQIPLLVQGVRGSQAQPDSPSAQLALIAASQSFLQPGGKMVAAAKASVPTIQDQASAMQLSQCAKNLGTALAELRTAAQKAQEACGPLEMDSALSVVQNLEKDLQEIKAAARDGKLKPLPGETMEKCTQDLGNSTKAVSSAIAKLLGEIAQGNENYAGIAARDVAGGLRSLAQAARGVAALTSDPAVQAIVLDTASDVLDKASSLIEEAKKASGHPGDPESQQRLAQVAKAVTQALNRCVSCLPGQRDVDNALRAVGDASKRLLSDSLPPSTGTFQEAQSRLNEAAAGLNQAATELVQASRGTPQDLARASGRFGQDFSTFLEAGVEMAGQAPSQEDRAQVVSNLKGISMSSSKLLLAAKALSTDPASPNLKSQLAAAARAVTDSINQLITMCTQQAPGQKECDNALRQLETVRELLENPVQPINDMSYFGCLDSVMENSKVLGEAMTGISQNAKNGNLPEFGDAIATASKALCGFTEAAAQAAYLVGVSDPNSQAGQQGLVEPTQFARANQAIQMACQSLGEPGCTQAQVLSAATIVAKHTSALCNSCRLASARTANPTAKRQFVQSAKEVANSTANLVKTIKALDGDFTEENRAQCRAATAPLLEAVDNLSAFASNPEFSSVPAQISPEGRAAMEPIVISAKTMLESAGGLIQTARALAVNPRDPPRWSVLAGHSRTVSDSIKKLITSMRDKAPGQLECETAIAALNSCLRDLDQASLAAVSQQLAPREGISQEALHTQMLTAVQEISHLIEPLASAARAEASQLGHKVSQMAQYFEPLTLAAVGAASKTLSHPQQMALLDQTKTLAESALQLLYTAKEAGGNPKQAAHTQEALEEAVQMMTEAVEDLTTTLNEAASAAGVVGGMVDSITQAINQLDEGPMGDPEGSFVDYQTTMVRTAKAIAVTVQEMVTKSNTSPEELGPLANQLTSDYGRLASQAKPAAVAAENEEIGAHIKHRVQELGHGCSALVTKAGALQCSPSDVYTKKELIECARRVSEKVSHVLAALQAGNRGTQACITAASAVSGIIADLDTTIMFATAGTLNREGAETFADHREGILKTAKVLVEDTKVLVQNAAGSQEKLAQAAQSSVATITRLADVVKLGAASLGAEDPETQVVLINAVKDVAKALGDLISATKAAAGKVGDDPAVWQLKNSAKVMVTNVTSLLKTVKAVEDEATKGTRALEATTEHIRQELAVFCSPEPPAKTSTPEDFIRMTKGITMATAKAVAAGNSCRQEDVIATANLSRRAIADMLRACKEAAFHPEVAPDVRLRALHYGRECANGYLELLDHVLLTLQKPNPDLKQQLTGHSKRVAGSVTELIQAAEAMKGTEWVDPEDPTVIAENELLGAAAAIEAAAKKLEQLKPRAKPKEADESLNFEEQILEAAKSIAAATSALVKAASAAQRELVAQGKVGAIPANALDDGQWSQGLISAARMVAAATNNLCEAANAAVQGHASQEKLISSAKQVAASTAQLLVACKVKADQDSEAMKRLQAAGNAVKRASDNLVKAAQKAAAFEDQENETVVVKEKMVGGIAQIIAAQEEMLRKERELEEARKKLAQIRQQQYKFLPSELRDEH


Target: T1, 3×FLAG–galectin-8 (stably expressed in RAW 264.7 cells) (mouse)
Experiment: affinity purification with mass spectrometry; anti-FLAG IP of 3×FLAG–galectin-8 from RAW 264.7 cells infected with ΔactA L. monocytogenes (1 or 2 h postinfection); associated proteins identified by LC/MS

Row | Molecule | binding
1 | 14-3-3-epsilon/YWAHAE (from UniProt P62259 1-255) | binds
2 | ANXA2 (from UniProt P07356 1-339) | binds
3 | ANXA5 (from UniProt P48036 1-319) | binds
4 | Cdc42 (from UniProt P60766 1-191) | binds
5 | EFhd2 (from UniProt Q9D8Y0 1-240) | binds
6 | HGMB1 (from UniProt P63158 1-215) | binds
7 | HSP90B1 (from UniProt P08113 22-802) | binds
8 | PDIA1 (from UniProt P09103 20-509) | binds
9 | PDIA3 (from UniProt P27773 25-505) | binds
10 | PDIA4 (from UniProt P08003 21-638) | binds
11 | Rab7 (mouse (endogenous in RAW 264.7)) | binds
12 | Rab GDI [GDP dissociation inhibitor] (mouse (endogenous in RAW 264.7)) | binds
13 | Rho GDI (mouse (endogenous in RAW 264.7)) | binds
14 | RhoC (from UniProt Q62159 1-193) | binds
15 | cathepsin Z (from UniProt Q9WUU7 64-306) | binds
16 | gelsolin (from UniProt P13020 26-780) | binds

Row | Molecule | binding
17 | macrosialin/CD68 (from UniProt P31996 21-326) | binds
18 | profilin (mouse (endogenous in RAW 264.7)) | binds
19 | syntenin-1/SDCBP (endogenous, RAW 264.7 cells) (from UniProt O08992 1-299) | binds
20 | talin-1 (from UniProt P26039 1-2541) | binds
21 | PRDX1 (protein, UniProt P35700 1-199) MSSGNAKIGYPAPNFKATAVMPDGQFKDISLSEYKGKYVVFFFYPLDFTFVCPTEIIAFSDRADEFKKLNCQVIGASVDSHFCHLAWINTPKKQGGLGPMNIPLISDPKRTIAQDYGVLKADEGISFRGLFIIDDKGILRQITINDLPVGRSVDEIIRLVQAFQFTDKHGEVCPAGWKPGSDTIKPDVNKSKEYFSKQK | binds
22 | thioredoxin (protein, UniProt P10639 1-105) MVKLIESKEAFQEALAAAGDKLVVVDFSATWCGPCKMIKPFFHSLCDKYSNVVFLEVDVDDCQDVAADCEVKCMPTFQFYKKGQKVGEFSGANKEKLEASITEYA | binds
23 | lysozyme C1 (protein, UniProt P17897 19-148) KVYNRCELARILKRNGMDGYRGVKLADWVCLAQHESNYNTRATNYNRGDRSTDYGIFQINSRYWCNDGKTPRSKNACGINCSALLQDDITAAIQCAKRVVRDPQGIRAWVAWRTQCQNRDLSQYIRNCGV | binds
24 | LAMP1 (protein, UniProt P11438 25-406) LFEVKNNGTTCIMASFSASFLTTYETANGSQIVNISLPASAEVLKNGSSCGKENVSDPSLTITFGRGYLLTLNFTKNTTRYSVQHMYFTYNLSDTEHFPNAISKEIYTMDSTTDIKADINKAYRCVSDIRVYMKNVTVVLRDATIQAYLSSGNFSKEETHCTQDGPSPTTGPPSPSPPLVPTNPTVSKYNVTGNNGTCLLASMALQLNITYLKKDNKTVTRAFNISPNDTSSGSCGINLVTLKVENKNRALELQFGMNASSSLFFLQGVRLNMTLPDALVPTFSISNHSLKALQATVGNSYKCNTEEHIFVSKMLSLNVFSVQVQAFKVDSDRFGSVEECVQDGNNMLIPIAVGGALAGLVLIVLIAYLIGRKRSHAGYQTI | binds
25 | lysozyme M (protein, UniProt P08905 19-148) KVYERCEFARTLKRNGMAGYYGVSLADWVCLAQHESNYNTRATNYNRGDQSTDYGIFQINSRYWCNDGKTPRAVNACGINCSALLQDDITAAIQCAKRVVRDPQGIRAWVAWRAHCQNRDLSQYIRNCGV | binds
26 | PDIA6 (protein, UniProt Q922R8 20-440) LYSSSDDVIELTPSNFNREVIQSDGLWLVEFYAPWCGHCQRLTPEWKKAATALKDVVKVGAVNADKHQSLGGQYGVQGFPTIKIFGANKNKPEDYQGGRTGEAIVDAALSALRQLVKDRLGGRSGGYSSGKQGRGDSSSKKDVVELTDDTFDKNVLDSEDVWMVEFYAPWCGHCKNLEPEWAAAATEVKEQTKGKVKLAAVDATVNQVLASRYGIKGFPTIKIFQKGESPVDYDGGRTRSDIVSRALDLFSDNAPPPELLEIINEDIAKKTCEEHQLCVVAVLPHILDTGAAGRNSYLEVLLKLADKYKKKMWGWLWTEAGAQYELENALGIGGFGYPAMAAINARKMKFALLKGSFSEQGINEFLRELSFGRGSTAPVGGGSFPTITPREPWDGKDGELPVEDDIDLSDVELDDLEKDEL | binds
27 | cyclophilin C-associated protein (protein, UniProt Q07797 19-577) TEDGDMRLVNGASANEGRVEIFYRGRWGTVCDNLWNLLDAHVVCRALGYENATQALGRAAFGPGKGPIMLDEVECTGTESSLASCRSLGWMVSRCGHEKDAGVVCSNDTTGLHILDLSGELSDALGQIFDSQQGCDLFIQVTGQGYEDLSLCAHTLILRTNPEAQALWQVVGSSVIMRVDAECMPVVRDFLRYFYSRRIEVSMSSVKCLHKLASAYGATELQDYCGRLFATLLPQDPTFHTPLDLYAYARATGDSMLEDLCVQFLAWNFEPLTQSESWSAVPTTLIQALLPKSELAVSSELDLLKAVDQWSTETIASHEDIERLVEQVRFPMMLPQELFELQFNLSLYQDHQALFQRKTMQALEFHTVPVEVLAKYKGLNLTEDTYKPRLYTSSTWSSLVMASTWRAQRYEYNRYNQLYTYGYGSVARYNSYQSFQTPQHPSFLFKDKQISWSATYLPTMQSCWNYGFSCTSNELPVLGLTTSSYSNPTIGYENRVLILCGGYSVVDVTSFEGSKAPIPTALDTNSSKTPSLFPCASGAFSSFRVVIRPFYLTNSTDMV | binds
28 | calnexin (protein, UniProt P35564 21-591) HDGHDDDAIDIEDDLDDVIEEVEDSKSKSDASTPPSPKVTYKAPVPTGEVYFADSFDRGSLSGWILSKAKKDDTDDEIAKYDGKWEVDEMKETKLPGDKGLVLMSRAKHHAISAKLNKPFLFDTKPLIVQYEVNFQNGIECGGAYVKLLSKTAELSLDQFHDKTPYTIMFGPDKCGEDYKLHFIFRHKNPKTGVYEEKHAKRPDADLKTYFTDKKTHLYTLILNPDNSFEILVDQSVVNSGNLLNDMTPPVNPSREIEDPEDRKPEDWDERPKIADPDAVKPDDWDEDAPSKIPDEEATKPEGWLDDEPEYIPDPDAEKPEDWDEDMDGEWEAPQIANPKCESAPGCGVWQRPMIDNPNYKGKWKPPMIDNPNYQGIWKPRKIPNPDFFEDLEPFKMTPFSAIGLELWSMTSDIFFDNFIISGDRRVVDDWANDGWGLKKAADGAAEPGVVLQMLEAAEERPWLWVVYILTVALPVFLVILFCCSGKKQSNAMEYKKTDAPQPDVKDEEGKEEEKNKRDEEEEEEKLEEKQKSDAEEDGVTGSQDEEDSKPKAEEDEILNRSPRNRKPRRE | binds
29 | LAMP2 (protein, UniProt P17047 26-415) LIVNLTDSKGTCLYAEWEMNFTITYETTNQTNKTITIAVPDKATHDGSSCGDDRNSAKIMIQFGFAVSWAVNFTKEASHYSIHDIVLSYNTSDSTVFPGAVAKGVHTVKNPENFKVPLDVIFKCNSVLTYNLTPVVQKYWGIHLQAFVQNGTVSKNEQVCEEDQTPTTVAPIIHTTAPSTTTTLTPTSTPTPTPTPTPTVGNYSIRNGNTTCLLATMGLQLNITEEKVPFIFNINPATTNFTGSCQPQSAQLRLNNSQIKYLDFIFAVKNEKRFYLKEVNVYMYLANGSAFNISNKNLSFWDAPLGSSYMCNKEQVLSVSRAFQINTFNLKVQPFNVTKGQYSTAQDCSADEDNFLVPIAVGAALGGVLILVLLAYFIGLKRHHTGYEQF | binds
30 | 14-3-3-gamma/YWAHAG (protein, UniProt P61982 1-247) MVDREQLVQKARLAEQAERYDDMAAAMKNVTELNEPLSNEERNLLSVAYKNVVGARRSSWRVISSIEQKTSADGNEKKIEMVRAYREKIEKELEAVCQDVLSLLDNYLIKNCSETQYESKVFYLKMKGDYYRYLAEVATGEKRATVVESSEKAYSEAHEISKEHMQPTHPIRLGLALNYSVFYYEIQNAPEQACHLAKTAFDDAIAELDTLNEDSYKDSTLIMQLLRDNLTLWTSDQQDDDGGEGNN | binds
31 | macrophage capping protein (protein, UniProt P24452 1-352) MYTPIPQSGSPFPASVQDPGLHIWRVEKLKPVPIARESHGIFFSGDSYLVLHNGPEEASHLHLWIGQQSSRDEQGACAVLAVHLNTLLGERPVQHREVQGNESDLFMSYFPRGLKYYREGGVESAFHKTTSGARGAAIRKLYQVKGKKNIRATERPLSWDSFNTGDCFILDLGQNIFAWCGGKSNILERNKARDLALAIRDSERQGKAQVEIITDGEEPAEMIQVLGPKPALKEGNPEEDITADQTRPNAQAAALYKVSDATGQMNLTKVADSSPFASELLIPDDCFVLDNGLCAQIYIWKGRKANEKERQAALQVADGFISRMRYSPNTQVEILPQGRESPIFKQFFKNWK | binds
32 | PRDX2 (protein, UniProt Q61171 1-198) MASGNAQIGKSAPDFTATAVVDGAFKEIKLSDYRGKYVVLFFYPLDFTFVCPTEIIAFSDHAEDFRKLGCEVLGVSVDSQFTHLAWINTPRKEGGLGPLNIPLLADVTKSLSQNYGVLKNDEGIAYRGLFIIDAKGVLRQITVNDLPVGRSVDEALRLVQAFQYTDEHGEVCPAGWKPGSDTIKPNVDDSKEYFSKHN | binds
